Assay [1] has as its target T18-MorA (P. aeruginosa PAO1) (UniProt Q9HVI8). In words: two-hybrid; modified BACTH in E. coli BTH101, X-Gal agar, 30°C; untagged PelE alone coexpressed from pBADGr (0.5% arabinose).
The target is the same in assay [2]. In words: two-hybrid; modified BACTH in E. coli BTH101, X-Gal agar, 30°C; untagged PelE and PelG both coexpressed from pBADGr (0.5% arabinose).
The target is the same in assay [3]. The assay is described as follows: two-hybrid; BACTH in E. coli BTH101, N-terminal T18 and T25 fusions, LB agar with IPTG and X-Gal, 30°C, 24 h; no PelE or PelG coexpressed (empty pBADGr vector control).
The target is the same in assay [4]. The assay is described as follows: two-hybrid; modified BACTH in E. coli BTH101, X-Gal agar, 30°C; untagged PelG alone coexpressed from pBADGr (0.5% arabinose).

Results are given in words; binding and its absence hold for the method and conditions named. Binding can be weak; no strength is given.

B1: T25-PelD (protein, UniProt Q9HZE7 1-455)
chain: MSAHKDFTLAPRASGSVSWVETLVISALALGLGWWFSPDDPLQVNATFPWVILAPLLLGMRYGFVRGLASAALLVAALFAFRARGVEAYAQVPAAFIVGVLLCAMLVGEFRDIWERRLERLELANEYRQLRLDEFTRAHHILRISHDRLEQRVAGNDQSLRSSLLGLRQLLRELPGDEAPLDALAETVLALLAQYGSLRIAGLYRVRYDRTPEPQPLATLGEMPALDADDLLVRTCLERGELVSVRQELLERGEQRAHSALQVCVPLVDTDGRILALLAVEQMPFFVFNERTFSLLAILAGHIADLLQSDRRALQLADIDAQRFSQYLKRSLLDARDHGLPACLYAFELTDARYGEEVQRLLEGSQRGLDVQLRLRNDEGRRVLLVLLPLTSAEGSQGYLQRLRILFAERFGQARELESLGVRIRQYELDAGNDRQALGHFLFNECGLNDQQVAI
As to B1, the binding entry is “binds weakly” in assay [1], “binds” in assay [2], “binds weakly” in assay [3] and “binds weakly” in assay [4].
